Data reported in the supplement of paper PMC4604168 (melanoma cell lines).
The other results are listed elsewhere or left out. Repeats are few or missing, and single values can be far off.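 Imaging used 1,536-well plates; nuclei positive for cleaved PARP by antibody were divided by total DNA-stained nuclei to yield the apoptosis fraction. Doses for screening kept most cells viable, and cell lines differ markedly in resting and induced cleaved-PARP levels.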

How the values were obtained:
Experiment in all cases: cleaved PARP positive nuclei fraction relative to DMSO control; melanoma cells; higher = more apoptosis
Settings in all cases: library dose: low library concentration; 72 h
MZ2-MEL = tested on: MZ2-MEL
MeWo = tested on: MeWo
RPMI7951 = tested on: RPMI7951
RVH-421 = tested on: RVH-421
SkMel28 = tested on: SkMel28
SkMel2 = tested on: SkMel2
SkMel30 = tested on: SkMel30
SkMel5 = tested on: SkMel5
UACC257 = tested on: UACC257
UACC62 = tested on: UACC62
WM115 = tested on: WM115
WM1716 = tested on: WM1716
WM1745 = tested on: WM1745
WM3526 = tested on: WM3526
WM3619 = tested on: WM3619
WM451Lu = tested on: WM451Lu

Structure (SMILES) | cleaved PARP positive nuclei fraction (MZ2-MEL) | cleaved PARP positive nuclei fraction (MeWo) | cleaved PARP positive nuclei fraction (RPMI7951) | cleaved PARP positive nuclei fraction (RVH-421) | cleaved PARP positive nuclei fraction (SkMel28) | cleaved PARP positive nuclei fraction (SkMel2) | cleaved PARP positive nuclei fraction (SkMel30) | cleaved PARP positive nuclei fraction (SkMel5) | cleaved PARP positive nuclei fraction (UACC257) | cleaved PARP positive nuclei fraction (UACC62) | cleaved PARP positive nuclei fraction (WM115) | cleaved PARP positive nuclei fraction (WM1716) | cleaved PARP positive nuclei fraction (WM1745) | cleaved PARP positive nuclei fraction (WM3526) | cleaved PARP positive nuclei fraction (WM3619) | cleaved PARP positive nuclei fraction (WM451Lu)
CN(c1ncccc1CNc1nc(Nc2ccc3c(c2)CC(=O)N3)ncc1C(F)(F)F)S(C)(=O)=O + COc1ccc(-c2ccc3c(N4CCOCC4)nc(N4C[C@@H](C)O[C@@H](C)C4)nc3n2)cc1CO [KU0063794] (first compound 0.08 µM, partner dose 0.02 µM) | 223% | 66.2% | 362% | 112% | 107% | 105% | 93.1% | 99.7% | 124% | 108% | 120% | 84.6% | 100% | 171% | 82.6% | 41.2%
Cn1sc(=O)n(Cc2ccccc2)c1=O + O=C(Nc1cccc(Cl)c1)Nc1ncc(CCNc2ncnc3ccsc23)s1 [SNS314] (first compound 0.4 µM, partner dose 0.0008 µM) | 101% | 101% | 199% | 29.8% | 37.1% | 128% | 179% | 179% | 96.6% | 38.6% | 118% | 84.5% | 106% | 102% | 100% | 158%
CN(c1ncccc1CNc1nc(Nc2ccc3c(c2)CC(=O)N3)ncc1C(F)(F)F)S(C)(=O)=O + CCN(CC)CCCCNc1ncc2cc(-c3cc(OC)cc(OC)c3)c(NC(=O)NC(C)(C)C)nc2n1 [PD173074] (first compound 0.08 µM, partner dose 0.1 µM) | 299% | 97.1% | 205% | 43.9% | 85.9% | 71.2% | 80.1% | 103% | 142% | 119% | 128% | 107% | 123% | 75.8% | 69.1% | 75.6%
Cn1sc(=O)n(Cc2ccccc2)c1=O + CC(C)(C)c1cnc(CSc2cnc(NC(=O)C3CCNCC3)s2)o1 [SNS-032] (first compound 0.4 µM, partner dose 0.01 µM) | 345% | 101% | 149% | 293% | 97.8% | 124% | 69.9% | 146% | 104% | 516% | 163% | 124% | 88.2% | 74.2% | 91.3% | 113%
CCCCCCCCc1ccc(CCC(N)(CO)CO)cc1 [fingolimod] + COC(=O)c1sccc1S(=O)(=O)Nc1ccc(Nc2ccccc2)cc1OC [GSK0660] (first compound 2 µM, partner dose 1 µM) | 75.3% | 97.7% | 185% | 163% | 122% | 57.8% | 29.7% | 73.2% | 104% | 267% | 181% | 26.9% | 105% | 84.6% | 75% | 35.6%
CN(c1ncccc1CNc1nc(Nc2ccc3c(c2)CC(=O)N3)ncc1C(F)(F)F)S(C)(=O)=O + O=C1NC(=O)/C(=C/c2ccc(-c3ccc(F)cc3O)o2)S1 [AS252424] (first compound 0.08 µM, partner dose 1 µM) | 168% | 96.9% | 329% | 156% | 126% | 139% | 154% | 280% | 127% | 158% | 67.6% | 37.3% | 136% | 81% | 226% | 558%
CCCCCCCCc1ccc(CCC(N)(CO)CO)cc1 [fingolimod] + C=CCn1c(=O)c2cnc(Nc3ccc(N4CCN(C)CC4)cc3)nc2n1-c1cccc(C(C)(C)O)n1 [MK1775] (first compound 2 µM, partner dose 0.02 µM) | 99.9% | 15.9% | 88.8% | 54.9% | 62.7% | 71.4% | 45.9% | 117% | 36.2% | 146% | 86.4% | 170% | 129% | 34.8% | 102% | 46.9%
CC1(C)CCC(c2ccc(Cl)cc2)=C(CN2CCN(c3ccc(C(=O)NS(=O)(=O)c4ccc(N[C@H](CCN5CCOCC5)CSc5ccccc5)c(S(=O)(=O)C(F)(F)F)c4)cc3)CC2)C1 + O=C(Nc1ccccc1)c1cc([N+](=O)[O-])ccc1Cl [GW9662] (first compound 0.4 µM, partner dose 2 µM) | 253% | 644% | 339% | 163% | 80.8% | 103% | 48.2% | 114% | 55.5% | 193% | 166% | 63.9% | 332% | 86% | 117% | 40.6%
Cn1sc(=O)n(Cc2ccccc2)c1=O + COc1ccc2c(c1)CCC1C2CCC2(C)C(NCCCCCCN3C(=O)C=CC3=O)CCC12 [U73122] (first compound 0.4 µM, partner dose 0.4 µM) | 142% | 178% | 38.3% | 170% | 77.4% | 125% | 97.1% | 148% | 91.8% | 251% | 118% | 102% | 97.6% | 208% | 108% | 300%
Cn1cnc2c(F)c(Nc3ccc(Br)cc3Cl)c(C(=O)NOCCO)cc21 [selumetinib] + Cn1cc(/C=C2\C(=O)Nc3cccnc32)c2ccccc21 [GW441756] (first compound 0.015 µM, partner dose 0.4 µM) | 399% | 113% | 32.5% | 58.2% | 120% | 26.1% | 69.7% | 132% | 110% | 164% | 87.1% | 70.5% | 93.7% | 105% | 91% | 95.8%
CN(c1ncccc1CNc1nc(Nc2ccc3c(c2)CC(=O)N3)ncc1C(F)(F)F)S(C)(=O)=O + NCC(=O)Nc1ccc(-n2nc(C(F)(F)F)cc2-c2ccc3c(ccc4ccccc43)c2)cc1 [OSU03012] (first compound 0.08 µM, partner dose 1 µM) | 160% | 271% | 95.2% | 176% | 381% | 74.2% | 108% | 456% | 278% | 189% | 100% | 182% | 141% | 26.1% | 119% | 123%
CCCCCCCCc1ccc(CCC(N)(CO)CO)cc1 [fingolimod] + CCc1ccc(CCOc2ccc(CC3SC(=O)NC3=O)cc2)nc1 [pioglitazone] (first compound 2 µM, partner dose 2 µM) | 96.2% | 205% | 69.4% | 119% | 116% | 85.8% | 80.4% | 279% | 212% | 377% | 195% | 63.3% | 100% | 190% | 195% | 88.7%
CC(=O)O[C@@]12CO[C@@H]1C[C@H](O)[C@@]1(C)C(=O)[C@H](O)C3=C(C)[C@@H](OC(=O)[C@H](O)[C@@H](NC(=O)OC(C)(C)C)c4ccccc4)C[C@@](O)([C@@H](OC(=O)c4ccccc4)[C@H]21)C3(C)C [Docetaxel] + CC1(C)NC(=O)N(c2ccc([N+](=O)[O-])c(C(F)(F)F)c2)C1=O [nilutamide] (first compound 0.0001 µM, partner dose 1 µM) | 521% | 926% | 238% | 59.9% | 422% | 718% | 216% | 119% | 555% | 463% | 241% | 702% | 259% | 142% | 98.2% | 214%
CCN(CC)CCNC(=O)c1c(C)[nH]c(/C=C2\C(=O)Nc3ccc(F)cc32)c1C [sunitinib] + O=C1NC(=O)/C(=C/c2ccc(-c3ccc(F)cc3O)o2)S1 [AS252424] (first compound 0.4 µM, partner dose 1 µM) | 148% | 66.7% | 101% | 171% | 64.9% | 36.2% | 51.4% | 69% | 102% | 55.1% | 76.7% | 73.2% | 395% | 337% | 77.3% | 237%
C[C@]1(O)C[C@@H](c2nc(-c3ccc4ccc(-c5ccccc5)nc4c3)c3c(N)nccn32)C1 + O=c1cc(-c2cccc3c2Sc2ccccc2S3)oc(N2CCOCC2)c1 [KU55933] (first compound 0.4 µM, partner dose 1 µM) | 128% | 88.6% | 39.1% | 44.3% | 249% | 107% | 73.9% | 84.2% | 316% | 108% | 81.9% | 43.1% | 95.1% | 84.6% | 97.8% | 108%
CS(=O)(=O)c1ccc(C(=O)Nc2ccc(Cl)c(-c3ccccn3)c2)c(Cl)c1 [vismodegib] + CCCCCCCCCCCC1=C(O)C(=O)C=C(O)C1=O [Embelin] (first compound 1 µM, partner dose 1.2 µM) | 19.6% | 133% | 49.3% | 258% | 102% | 95.2% | 34.9% | 69.9% | 103% | 183% | 148% | 66.8% | 78% | 70.1% | 89.5% | 74.2%
C[C@@H](N)c1ccc(C(=O)Nc2ccnc3[nH]ccc23)cc1 + CO[C@@H]1[C@H](N(C)C(=O)c2ccccc2)C[C@H]2O[C@]1(C)n1c3ccccc3c3c4c(c5c6ccccc6n2c5c31)C(=O)NC4 [Midostaurin] (first compound 0.4 µM, partner dose 0.08 µM) | 189% | 422% | 166% | 141% | 106% | 224% | 55.7% | 106% | 124% | 161% | 86.7% | 247% | 112% | 113% | 127% | 110%
CS(=O)(=O)c1ccc(C(=O)Nc2ccc(Cl)c(-c3ccccn3)c2)c(Cl)c1 [vismodegib] + CN(C)S(=O)(=O)c1ccc2c(c1)/C(=C/c1cc3c([nH]1)CCCC3)C(=O)N2 [SU6656] (first compound 1 µM, partner dose 0.4 µM) | 48.5% | 231% | 90.5% | 39% | 31.9% | 115% | 224% | 130% | 112% | 174% | 38.7% | 101% | 202% | 60% | 168% | 117%
CC1(C)CCC(c2ccc(Cl)cc2)=C(CN2CCN(c3ccc(C(=O)NS(=O)(=O)c4ccc(N[C@H](CCN5CCOCC5)CSc5ccccc5)c(S(=O)(=O)C(F)(F)F)c4)cc3)CC2)C1 + O=C(O)c1ccc(-c2c[nH]c3ncc(-c4ccccc4)cc23)cc1C1CCCC1 [GSK650394] (first compound 0.4 µM, partner dose 0.16 µM) | 397% | 863% | 152% | 47.3% | 22.7% | 192% | 401% | 510% | 143% | 44.5% | 246% | 213% | 845% | 113% | 125% | 225%

Reprinted at random: 2 entries already listed.
Structure (SMILES) | cleaved PARP positive nuclei fraction (MZ2-MEL) | cleaved PARP positive nuclei fraction (MeWo) | cleaved PARP positive nuclei fraction (RPMI7951) | cleaved PARP positive nuclei fraction (RVH-421) | cleaved PARP positive nuclei fraction (SkMel28) | cleaved PARP positive nuclei fraction (SkMel2) | cleaved PARP positive nuclei fraction (SkMel30) | cleaved PARP positive nuclei fraction (SkMel5) | cleaved PARP positive nuclei fraction (UACC257) | cleaved PARP positive nuclei fraction (UACC62) | cleaved PARP positive nuclei fraction (WM115) | cleaved PARP positive nuclei fraction (WM1716) | cleaved PARP positive nuclei fraction (WM1745) | cleaved PARP positive nuclei fraction (WM3526) | cleaved PARP positive nuclei fraction (WM3619) | cleaved PARP positive nuclei fraction (WM451Lu)
CCCCCCCCc1ccc(CCC(N)(CO)CO)cc1 [fingolimod] + COC(=O)c1sccc1S(=O)(=O)Nc1ccc(Nc2ccccc2)cc1OC [GSK0660] (first compound 2 µM, partner dose 1 µM) | 75.3% | 97.7% | 185% | 163% | 122% | 57.8% | 29.7% | 73.2% | 104% | 267% | 181% | 26.9% | 105% | 84.6% | 75% | 35.6%
CS(=O)(=O)c1ccc(C(=O)Nc2ccc(Cl)c(-c3ccccn3)c2)c(Cl)c1 [vismodegib] + CN(C)S(=O)(=O)c1ccc2c(c1)/C(=C/c1cc3c([nH]1)CCCC3)C(=O)N2 [SU6656] (first compound 1 µM, partner dose 0.4 µM) | 48.5% | 231% | 90.5% | 39% | 31.9% | 115% | 224% | 130% | 112% | 174% | 38.7% | 101% | 202% | 60% | 168% | 117%
